{"source": "paper PMC11011687", "binders": {"B1": {"name": "NF-κB-repressing factor (NKRF), endogenous in HEK293T (protein, UniProt O15226 1-690)", "chain": "MEKILQMAEGIDIGEMPSYDLVLSKPSKGQKRHLSTCDGQNPPKKQAGSKFHARPRFEPVHFVASSSKDERQEDPYGPQTKEVNEQTHFASMPRDIYQDYTQDSFSIQDGNSQYCDSSGFILTKDQPVTANMYFDSGNPAPSTTSQQANSQSTPEPSPSQTFPESVVAEKQYFIEKLTATIWKNLSNPEMTSGSDKINYTYMLTRCIQACKTNPEYIYAPLKEIPPADIPKNKKLLTDGYACEVRCQNIYLTTGYAGSKNGSRDRATELAVKLLQKRIEVRVVRRKFKHTFGEDLVVCQIGMSSYEFPPALKPPEDLVVLGKDASGQPIFNASAKHWTNFVITENANDAIGILNNSASFNKMSIEYKYEMMPNRTWRCRVFLQDHCLAEGYGTKKTSKHAAADEALKILQKTQPTYPSVKSSQCHTGSSPRGSGKKKDIKDLVVYENSSNPVCTLNDTAQFNRMTVEYVYERMTGLRWKCKVILESEVIAEAVGVKKTVKYEAAGEAVKTLKKTQPTVINNLKKGAVEDVISRNEIQGRSAEEAYKQQIKEDNIGNQLLRKMGWTGGGLGKSGEGIREPISVKEQHKREGLGLDVERVNKIAKRDIEQIIRNYARSESHTDLTFSRELTNDERKQIHQIAQKYGLKSKSHGVGHDRYLVVGRKRRKEDLLDQLKQEGQVGHYELVMPQAN"}}, "biological_target": "GFP-fused A1CF (Apobec-1 complementation factor) (human)", "assay": "affinity purification with mass spectrometry; HEK293T cells overexpressing GFP-fused A1CF or GFP, extracts 48 h after transfection mixed with anti-GFP antibodies; immunoprecipitate separated by SDS-PAGE and identified by mass spectrometry", "note": "These are yes or no findings as the source states them, for the method shown. In cells and extracts the contact can be indirect. These calls come from enrichment with a bait or labelling near it, and not all partners need be listed.", "data": [{"binder": "B1", "values": [{"measurement": "binding", "value": "binds"}]}]}
